Experimental data from paper PMC5691656 (Viruses, 2017).
Results are given in words; binding and its absence hold for the method and conditions named.

Target: T1, Canarypox virus CNP058 lacking the C-terminal transmembrane domain (residues 1–143) (canarypox virus) (UniProt Q6VZT9)
T1 sequence: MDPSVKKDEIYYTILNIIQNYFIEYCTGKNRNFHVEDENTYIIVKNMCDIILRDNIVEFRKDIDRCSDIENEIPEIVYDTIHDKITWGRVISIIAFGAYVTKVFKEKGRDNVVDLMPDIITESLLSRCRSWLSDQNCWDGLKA
Assay: SEC

“Canarypox virus CNP058 lacking the C-terminal transmembrane domain (residues 1–143) (from UniProt Q6VZT9 1-143) (domain or fragment)” was tested, and the binding was “no binding”.
